Measurements taken from PubChem BioAssay AID652054 (National Center for Advancing Translational Sciences (NCATS), 2013).
The campaign covered roughly 360,000 compounds. About 9,100 (2.5%) were called active. Inconclusive results, whose numbers are uncertain, are shown with a selection of clear calls. No stated cut-off is given here; in the data, active means max response below about -50%; inconclusive means no clear call, values can overlap the other calls; inactive means above that.

Protein sequences, listed by entry. Tags and fused reporters are not part of them.
UniProt P35462, whole entry, looked up: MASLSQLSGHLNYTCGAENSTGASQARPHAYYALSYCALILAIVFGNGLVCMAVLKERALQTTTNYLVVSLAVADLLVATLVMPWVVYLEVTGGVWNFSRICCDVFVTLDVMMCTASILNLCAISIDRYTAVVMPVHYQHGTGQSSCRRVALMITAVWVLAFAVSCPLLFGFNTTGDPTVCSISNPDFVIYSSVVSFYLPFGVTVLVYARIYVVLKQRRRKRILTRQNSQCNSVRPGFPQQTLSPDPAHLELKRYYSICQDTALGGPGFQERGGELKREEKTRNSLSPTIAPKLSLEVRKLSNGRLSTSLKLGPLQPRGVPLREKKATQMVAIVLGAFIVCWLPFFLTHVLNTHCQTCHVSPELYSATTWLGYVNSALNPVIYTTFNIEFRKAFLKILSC

biological target: D(3) dopamine receptor (Homo sapiens) (UniProt P35462); assay: qHTS of D3 Dopamine Receptor Antagonist: qHTS; settings: D3R cells, DiscoveRx beta-arrestin luminescence, antagonist mode; stronger effect = lower value
Method in brief: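 Cells plated overnight at 1500 cells/well, then exposed to library compounds with dopamine controls for 90 minutes at 37 degrees C. DiscoveRx reagent added for 30–60 minutes at room temperature; luminescence read, quantitative HTS format.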
On the % scale 0 is the no-effect control and ±100 the full control effect.

Row | SMILES | max response, negative = inhibition
1 | O=C(Oc1ccc(F)cc1)N1CCOCC1 | inconclusive: -36.4%
2 | Cc1ccc(Nc2ncccc2C(=O)NCc2cccs2)c(C)c1 | inconclusive: -37.9%
3 | CCCCNC(=S)Nc1ccc(C(F)(F)F)cc1 | inactive: 19.3%
4 | Cc1c(C(=O)NC(=S)Nc2ccc(NC(=O)c3cccs3)cc2)cccc1[N+](=O)[O-] | inconclusive: -36.6%
5 | Cc1c(CCOC(=O)CC23CC4CC(CC(C4)C2)C3)sc[n+]1Cc1ccccc1 | inconclusive: -43.2%
6 | CC(C)(C)OC(=O)N[C@H](C(=O)OC(C)(C)C)c1ccccc1 | inactive: -13.1%
7 | CC(C)(C)c1ccc(S(=O)(=O)NC(=O)C2(C)CCN2C(=O)CC2CC2)cc1 (stereo unspecified) | inconclusive: -31.5%
8 | Cc1cccc2c1-c1sc(C(=O)NCCCN3CCc4ccccc4C3)cc1CO2 | active: -63.3%
9 | O=C(CN1C(=O)COc2ccccc21)N1CCc2ccccc21 | inconclusive: -32.7%
10 | COc1ccc(C(=O)COC(=O)Cn2nnc3ccccc32)cc1Br | inconclusive: -46%
11 | COc1ccc2oc(C(=O)c3ccccc3)c(N)c2c1 | inconclusive: -45.2%
12 | COc1cccc(N2CCN(Cc3nc(N)nc(Nc4ccccc4)n3)CC2)c1 | inconclusive: -40%
13 | CCOC(=O)c1cnc2ccc(OC)cc2c1NCc1ccccc1 | inconclusive: -36.6%
14 | CCCNC(=O)NC(=O)CSc1nnc(C)n1N | inconclusive: -44.3%
15 | O=C(c1ccccc1)N1CCN(CC(O)COCC2CC=CCC2)CC1 (stereo unspecified) | inconclusive: -47%
16 | Cn1c(=O)c2cc(NC(=S)NC3CCCCC3)ccc2n1-c1ccccc1 | inconclusive: -42.5%
17 | CC(C)(C)c1ccc(CN2N=Nc3ccccc3S2(=O)=O)cc1 | active: -92.6%
18 | Cc1ccc(NC(=S)NC2CCN(Cc3ccccc3)CC2)cc1 | active: -61.5%
19 | O=C1C=CC(=O)N1c1ccccc1N1C(=O)C=CC1=O | active: -113%
20 | Cc1nc(NC(=O)c2cc3ccccc3o2)sc1C | inactive: -10.1%
21 | OCC[C@@H]1C[C@H](O)[C@@H](O)[C@@]2(OCCc3ccccc32)O1 | inconclusive: -41.9%
22 | CCc1cc(=O)[nH]c(SCC(=O)N2CCC(Cc3ccccc3)CC2)n1 | active: -58.6%
23 | CCCCSc1n[nH]c(=S)c2nc[nH]c12 | inconclusive: -41.7%

Compounds listed so far containing a tert-butyl group, in the order listed:
Row | SMILES | max response, negative = inhibition
6 | CC(C)(C)OC(=O)N[C@H](C(=O)OC(C)(C)C)c1ccccc1 | inactive: -13.1%
7 | CC(C)(C)c1ccc(S(=O)(=O)NC(=O)C2(C)CCN2C(=O)CC2CC2)cc1 (stereo unspecified) | inconclusive: -31.5%
17 | CC(C)(C)c1ccc(CN2N=Nc3ccccc3S2(=O)=O)cc1 | active: -92.6%

(next part)

Row | SMILES | max response, negative = inhibition
24 | COc1cccc(N(CC(=O)NC2CCCCC2)C(=O)c2snc(C(N)=O)c2N)c1 | inactive: -12.2%
25 | CCOC(=O)c1c(NC(=O)COC(=O)Cc2n[nH]c(=O)c3ccccc23)sc(C(=O)NC)c1C | inconclusive: -34.5%
26 | CC1CCCC(C)N1CCNC(=O)Cn1nc(-c2ccccc2)ccc1=O (stereo unspecified) | inconclusive: -45.7%
27 | CC1(C)CC[C@]2(C(=O)O)CC[C@]3(C)C(=CC[C@@H]4[C@@]5(C)CC[C@H](O[C@@H]6O[C@H](C(=O)O)[C@@H](O)[C@H](O[C@@H]7OC[C@H](O)[C@H](O)[C@H]7O)[C@H]6O)C(C)(C)[C@@H]5CC[C@]43C)[C@@H]2C1 | active: -62.8%
28 | COC(=O)c1ccc(-n2nnnc2SCC(=O)Nc2cc(OC)ccc2OC)cc1 | inactive: 2.64%
29 | CCc1cc2c(=O)nc3n(c2s1)Cc1ccccc1/C3=C(/O)c1cccc([N+](=O)[O-])c1 | inconclusive: -35.2%
30 | O=C(CCCN1C(=O)/C(=C/c2cccc(Br)c2)SC1=S)Nc1ccccn1 | inconclusive: -47.9%
31 | CSCC[C@H](NC(=O)[C@H](Cc1ccccc1)n1c(=O)[nH]c2ccccc2c1=O)C(=O)N1CCC(C(=O)O)CC1 | inactive: 10.7%
32 | O=[N+]([O-])c1cccc(CNCc2ccccc2)c1 | inconclusive: -32.2%
33 | CCOC(=O)C1(CC2CCCCO2)CCN(Cc2cccnc2)CC1 (stereo unspecified) | inconclusive: -48.5%
34 | Cc1ccc(C2=NN(C(=O)CSc3nc4ncc(Cl)cc4[nH]3)C(c3ccco3)C2)cc1 (stereo unspecified) | inactive: -4.39%
35 | CCCC(=O)Nc1sc(Cc2ccccc2)c(C)c1C(N)=O | inactive: 5.08%
36 | CCc1cc(C(=O)NNC(=O)CCN2CCN(c3ccccc3)CC2)sc1C | active: -63%
37 | COc1cc(-c2nnc(NC(=O)CCS(=O)(=O)c3ccc(F)cc3)o2)cc(OC)c1OC | inconclusive: -31.9%
38 | COc1cc(F)ccc1-c1cc(C(=O)NCc2cccc(Cl)c2)[nH]n1 | inconclusive: -38.5%
39 | Cc1onc(-c2ccccc2Cl)c1C(=O)N/N=C(\N)COc1ccc(Cl)cc1 | inactive: -21.4%
40 | O=[N+]([O-])c1ccccc1CNc1ccc(F)c(Cl)c1 | inactive: -15.5%
41 | CC(=O)c1ccc(NC(=O)c2ccc([N+](=O)[O-])o2)cc1 | inactive: 0%
42 | Cc1cccc(/C=C/C(=O)c2ccc(NC3=NCCCS3)cc2)c1 | active: -56.9%
43 | O=[N+]([O-])c1cc(Cl)cc(/C=N/NC(=S)Nc2cc(S(=O)(=O)N3CCOCC3)ccc2Cl)c1O | active: -50.3%
44 | O=C(OCCN1CCCCC1)c1ccccc1Cl | active: -67.8%
45 | Cc1ccc(CNC(C)(C)CO)cc1 | inactive: 0%
46 | O=C1C(O)=CC(=C(c2ccccc2)c2ccccc2)c2ccccc21 | inconclusive: -41.8%

Row | SMILES | max response, negative = inhibition
47 | CC(C)COc1ccc(C(=S)N2CCCC2)cc1 | inactive: -8.98%
48 | COc1ccccc1NC(=O)c1cc2ccc(O)cc2o/c1=N\O | active: -74.8%
49 | CC1(C)CC(=O)C/C(=N/NC(=O)CCCOc2ccc(Cl)cc2Cl)C1 | inconclusive: -38.8%
50 | CCCCCCc1cc2cc(C(=O)Nc3cccc(OC)c3)c(=O)oc2cc1O | inactive: 8.76%
51 | CCc1ccc(OCCCCN(C)Cc2ccccc2)cc1 | active: -71.3%
52 | CCOc1ccc(CNC(=O)c2ccc3nc(N4CCOCC4)sc3c2)cc1 | inactive: -27.9%
53 | Cn1c(=O)c(=O)n(C)c2cc(S(=O)(=O)N3CCC(N4CCCCC4)CC3)ccc21 | inconclusive: -32.8%
54 | Cc1cc(N2C3CCC2CC(O)(c2ccc(F)cc2)C3)nc(-c2ccccc2)n1 (stereo unspecified) | active: -60.1%
55 | CC(=O)Nc1ccc(S(=O)(=O)N2CCCC2C(=O)O)cc1 (stereo unspecified) | inconclusive: -31.4%
56 | Cc1cc(=O)n2nc(N3CCCC(C(=O)NCc4ccccc4C)C3)sc2n1 (stereo unspecified) | inconclusive: -34.2%
57 | CCOC(=O)Nc1cccc2ccccc12 | inconclusive: -49%
58 | CN(C)C(CNC(=O)c1ccc(Cl)c(S(=O)(=O)N2CCCCCC2)c1)c1ccccc1 (stereo unspecified) | active: -80.7%
59 | Cc1nc(-c2cn[nH]c2)c2cc(C)oc2n1 | inactive: 7.97%
60 | Cc1ccc2c(c1)C(c1ccccc1)N(C(=O)c1ccc(Br)cc1)CC(=O)N2 (stereo unspecified) | inconclusive: -31.7%
61 | CSc1cccc(NC(=O)C2CCCN2S(=O)(=O)c2ccc(Br)s2)c1 (stereo unspecified) | inconclusive: -41.9%
62 | Cc1nnc(C)n1/N=C/c1ccccc1 | inconclusive: -33.1%
63 | N#Cc1ccc(C(=O)Nc2cc(C3CC3)nn2-c2ccccc2)cc1 | inconclusive: -43.5%
64 | CC(C)CC(=O)NC(=S)NCc1ccccc1 | inconclusive: -46.1%
65 | CCC(CC)C(=O)N(C)c1c(C)nc2c(OCc3ccc(C#N)cc3)cccn12 | inconclusive: -31.7%
66 | COc1cccc(NC(=S)N(CCc2c(C)[nH]c3ccccc23)Cc2ccco2)c1 | inconclusive: -37%
67 | O=C1CC2(CCN(C(=O)COc3ccccc3)CC2)Oc2ccccc21 | inactive: 11.5%
68 | CN(C)CCSc1nnc2[nH]c3ccccc3c2n1 | inconclusive: -43.5%
69 | COc1cc(/C=C/c2ccc3cccc(O)c3n2)cc(OC)c1OC | active: -63.7%

Row | SMILES | max response, negative = inhibition
70 | COc1ccc(N2CC(O)(c3ccc(F)cc3)[N+]3=C2CCCC3)cc1 (stereo unspecified) | inconclusive: -38.1%
71 | CC(=O)Cn1ncc(Br)c(Br)c1=O | inconclusive: -43.1%
72 | O=c1c2oc3ccccc3c2ncn1Cc1ccccc1Cl | inconclusive: -38%
73 | CCCNCC1C(Oc2ccc(Cl)cc2Cl)C(=O)N1c1cccc(C)c1C (stereo unspecified) | inconclusive: -33.7%
74 | S=C(Nc1ccccn1)c1ccccn1 | inconclusive: -38%
75 | CCCN(CCC)C(=O)CC(c1ccc(F)cc1)c1ccco1 (stereo unspecified) | inconclusive: -39%
76 | OCCN1CCN(c2cc(-c3ccc(CO)cc3)nc3ccnn23)CC1 | inconclusive: -36.6%
77 | C=CCn1c(=O)c(C(=O)Nc2ccccc2C(=O)OCC)c(O)c2ccccc21 | inconclusive: -42.5%
78 | COc1cccc(OC)c1CN1CCCC(C(=O)c2ccccc2SC)C1 (stereo unspecified) | inconclusive: -43.2%
79 | CCCCCCC(C)OC(=O)Nc1cccc2ccccc12 (stereo unspecified) | inactive: 45.7%
80 | Cc1nn2c3c(cnc2c1-c1ccc(Cl)cc1)C(=O)CC(c1ccco1)C3 (stereo unspecified) | active: -51.6%
81 | CC(O)C(O)C(O)C(O)C1NCCS1 (stereo unspecified) | inconclusive: -33.6%
82 | COc1ccc(CN=Cc2[nH]c3ccc(Br)c(Cl)c3c2O)cc1 | active: -73.9%
83 | Cc1csc(NC(=O)CN2CCCCCC2)n1 | inconclusive: -31.5%
84 | CCOc1ccc(S(=O)(=O)N(CC(=O)NC2CCCC2)c2ccc(F)cc2)cc1 | active: -52%
85 | Cc1nc2ccccc2n1Cc1ccc(Cl)cc1 | inconclusive: -31.6%
86 | O=S(=O)(Nc1ccc2ccccc2c1)c1ccccc1 | inactive: -20%
87 | O=C(OCCc1cc2ccccc2c(=O)o1)c1ccccc1C(F)(F)F | inconclusive: -34.8%
88 | CSc1ccc(OC2(C)CCN(Cc3ccc4c(c3)OCCO4)C2)cc1 (stereo unspecified) | inconclusive: -47.1%
89 | COc1ccccc1CCNS(=O)(=O)c1cc2c3c(c1)CCN3C(=O)CC2 | inactive: 12%
90 | CSC1=NCCN1S(=O)(=O)c1ccc2ccccc2c1 | inactive: -1.98%
91 | O=S(=O)(NC1CC(NS(=O)(=O)OCC(Cl)(Cl)Cl)C2CCCCC12)OCC(Cl)(Cl)Cl (stereo unspecified) | inconclusive: -48.1%
